PubChem BioAssay AID1259308 | NCATS | 2017
This is a random part of about 59,000 reagents tested. Over the whole deposit, about 1,510 (2.6%) got an active call. 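Calls use total luciferase alone and ignore viability, so some active siRNAs may act by altering cell number.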 Unmarked entries are inactive. Reagents against one gene are numbered here. Further read-outs or replicates are left out here.

Test: 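Candidate targets for better recombinant protein yield in mammalian cells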 (primary screen)
Cell system: human HEK293 embryonic kidney cells stably expressing firefly luciferase (HEK-CMV-Luc2-Hygro)
Reagent: single siRNA against human genes, 0.8 pmol siRNA per well
Duration: 72 h
Measured: 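Luciferase light (ONE-Glo) measured on one replicate plate set and viability (CellTiter-Glo) on the other, scaled to a negative control siRNA, with robust z-scores and luciferase per cell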
Reading the numbers: total luciferase, z-score and total luciferase, % of control: higher = more reporter protein produced
Call rule: 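Active when the median/MAD z-score for overall luciferase is greater than 3; a gene was taken forward for validation with new siRNAs if at least two of its three siRNAs passed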
Meaning of the calls: active = raised luciferase; inactive = no rise

Which result is listed for NAGK (N-acetylglucosamine kinase) #1?
total luciferase, z-score: -0.78; total luciferase, % of control: 66.4

Which result is listed for NAGK (N-acetylglucosamine kinase) #2?
total luciferase, z-score: 0.313; total luciferase, % of control: 88.1

With NAGK (N-acetylglucosamine kinase) #3, how do the results read?
total luciferase, z-score: -0.671; total luciferase, % of control: 68.5

With TMEM175 (transmembrane protein 175) #1, how do the results read?
total luciferase, z-score: 1.83; total luciferase, % of control: 118

What did the screen give for TMEM175 (transmembrane protein 175) #2?
total luciferase, z-score: 0.169; total luciferase, % of control: 85.2

Which result is listed for TMEM175 (transmembrane protein 175) #3?
total luciferase, z-score: 0.503; total luciferase, % of control: 91.9

Part of the list above, set out differently:
{"gene": "NAGK (N-acetylglucosamine kinase)", "siRNA no.": 3, "total luciferase, z-score": -0.671, "total luciferase, % of control": 68.5}
{"gene": "TMEM175 (transmembrane protein 175)", "siRNA no.": 1, "total luciferase, z-score": 1.83, "total luciferase, % of control": 118}

The listing continues:
For GOLGA6L9 (golgin A6 family like 9) #1, what was measured?
total luciferase, z-score: 3.11 (active); total luciferase, % of control: 144

With GOLGA6L9 (golgin A6 family like 9) #2, how do the results read?
total luciferase, z-score: -0.686; total luciferase, % of control: 68.2

How did the screen score GOLGA6L9 (golgin A6 family like 9) #3?
total luciferase, z-score: 1.72; total luciferase, % of control: 116

With MICOS10 #1, how do the results read?
total luciferase, z-score: -0.0383; total luciferase, % of control: 81.1

How did the screen score MICOS10 #2?
total luciferase, z-score: 2.34; total luciferase, % of control: 129

For MICOS10 #3, what does the deposit list?
total luciferase, z-score: 1.51; total luciferase, % of control: 112
